No constants are given. Whether binding was seen depends on the method and setting. Some entries that bind do so weakly or less than the wild type. Where a sequence is shown, tags or fusion partners need not be part of it.

Binding data for three molecules are collected here from PMC7154166.

Sequences and labels used below:
T1: BD-GL3 (GLABRA3 bHLH protein fused to the GAL4 DNA-binding domain) (Arabidopsis thaliana) (UniProt Q9FN69)
T1 sequence: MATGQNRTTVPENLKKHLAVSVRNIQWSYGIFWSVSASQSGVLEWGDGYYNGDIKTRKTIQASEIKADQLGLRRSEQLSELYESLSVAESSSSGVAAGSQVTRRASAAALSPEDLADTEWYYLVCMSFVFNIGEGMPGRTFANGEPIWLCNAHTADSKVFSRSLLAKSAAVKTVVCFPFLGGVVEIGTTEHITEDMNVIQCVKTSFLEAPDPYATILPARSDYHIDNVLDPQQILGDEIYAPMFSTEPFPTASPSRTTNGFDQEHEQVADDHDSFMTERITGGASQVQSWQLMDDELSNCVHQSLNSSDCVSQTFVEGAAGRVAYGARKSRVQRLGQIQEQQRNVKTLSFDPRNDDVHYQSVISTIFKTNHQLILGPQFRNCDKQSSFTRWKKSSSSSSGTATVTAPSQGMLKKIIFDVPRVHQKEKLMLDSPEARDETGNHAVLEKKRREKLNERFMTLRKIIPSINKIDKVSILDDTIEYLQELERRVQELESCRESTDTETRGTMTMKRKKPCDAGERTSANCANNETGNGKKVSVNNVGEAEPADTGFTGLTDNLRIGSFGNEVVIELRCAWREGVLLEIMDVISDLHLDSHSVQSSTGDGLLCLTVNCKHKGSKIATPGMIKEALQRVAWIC

B1: AD-TTG1(WT) (… TESTA GLABRA1 fused to the GAL4 activation domain) (protein, UniProt Q9XGN1 1-341)
chain: MDNSAPDSLSRSETAVTYDSPYPLYAMAFSSLRSSSGHRIAVGSFLEDYNNRIDILSFDSDSMTVKPLPNLSFEHPYPPTKLMFSPPSLRRPSSGDLLASSGDFLRLWEINEDSSTVEPISVLNNSKTSEFCAPLTSFDWNDVEPKRLGTCSIDTTCTIWDIEKSVVETQLIAHDKEVHDIAWGEARVFASVSADGSVRIFDLRDKEHSTIIYESPQPDTPLLRLAWNKQDLRYMATILMDSNKVVILDIRSPTMPVAELERHQASVNAIAWAPQSCKHICSGGDDTQALIWELPTVAGPNGIDPMSVYSAGSEINQLQWSSSQPDWIGIAFANKMQLLRV
B2: AD-TTG1(ttg1-23) (TTG1 S197F fused to the GAL4 activation domain) (protein, UniProt Q9XGN1 1-341)
chain: MDNSAPDSLSRSETAVTYDSPYPLYAMAFSSLRSSSGHRIAVGSFLEDYNNRIDILSFDSDSMTVKPLPNLSFEHPYPPTKLMFSPPSLRRPSSGDLLASSGDFLRLWEINEDSSTVEPISVLNNSKTSEFCAPLTSFDWNDVEPKRLGTCSIDTTCTIWDIEKSVVETQLIAHDKEVHDIAWGEARVFASVSADGFVRIFDLRDKEHSTIIYESPQPDTPLLRLAWNKQDLRYMATILMDSNKVVILDIRSPTMPVAELERHQASVNAIAWAPQSCKHICSGGDDTQALIWELPTVAGPNGIDPMSVYSAGSEINQLQWSSSQPDWIGIAFANKMQLLRV
B3: AD-TTG1(ttg1-24) (TTG1 L339F fused to the GAL4 activation domain) (protein, UniProt Q9XGN1 1-341)
chain: MDNSAPDSLSRSETAVTYDSPYPLYAMAFSSLRSSSGHRIAVGSFLEDYNNRIDILSFDSDSMTVKPLPNLSFEHPYPPTKLMFSPPSLRRPSSGDLLASSGDFLRLWEINEDSSTVEPISVLNNSKTSEFCAPLTSFDWNDVEPKRLGTCSIDTTCTIWDIEKSVVETQLIAHDKEVHDIAWGEARVFASVSADGSVRIFDLRDKEHSTIIYESPQPDTPLLRLAWNKQDLRYMATILMDSNKVVILDIRSPTMPVAELERHQASVNAIAWAPQSCKHICSGGDDTQALIWELPTVAGPNGIDPMSVYSAGSEINQLQWSSSQPDWIGIAFANKMQLFRV

The experiment concerns the target T1, BD-GL3 (GLABRA3 bHLH protein fused to the GAL4 DNA-binding domain) (Arabidopsis thaliana). Description: two-hybrid; yeast strain AH109; BD-GL3 (pGBT9) with AD-TTG1 fusions (pGAD424); growth on SD/-Trp/-Leu/-His/-Ade with 20 mM 3-AT and β-galactosidase activity assay.
In the case of B1, the binding entry was “binds”.
On to B2, for which the binding entry is on record as “binds”.
For B3 the value was “binds”.
